# Results from paper PMC5437309.
# Sequences of proteins named here, by UniProt entry; tags and fusion partners are left off. A change or cut given only in a name is not applied to a line headed by its entry.
# UniProt Q16539: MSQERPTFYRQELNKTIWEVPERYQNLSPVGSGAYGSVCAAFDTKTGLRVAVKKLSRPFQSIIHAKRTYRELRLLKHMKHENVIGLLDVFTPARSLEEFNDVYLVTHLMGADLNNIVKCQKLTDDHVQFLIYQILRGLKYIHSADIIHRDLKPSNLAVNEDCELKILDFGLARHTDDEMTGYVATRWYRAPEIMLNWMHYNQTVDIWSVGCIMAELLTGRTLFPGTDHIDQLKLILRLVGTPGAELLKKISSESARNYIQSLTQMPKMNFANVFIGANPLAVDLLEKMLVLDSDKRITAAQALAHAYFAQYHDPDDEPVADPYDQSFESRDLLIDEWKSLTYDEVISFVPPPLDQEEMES
# These are yes or no findings as the source states them, for the method shown. In cells and extracts the contact can be indirect. Binding can be weak; no strength is given. Tags and fused reporters may be left off the sequences shown.
# B1: Luc-MKK3b (enzyme, UniProt P46734 1-347)
# chain: MESPASSQPASMPQSKGKSKRKKDLRISCMSKPPAPNPTPPRNLDSRTFITIGDRNFEVEADDLVTISELGRGAYGVVEKVRHAQSGTIMAVKRIRATVNSQEQKRLLMDLDINMRTVDCFYTVTFYGALFREGDVWICMELMDTSLDKFYRKVLDKNMTIPEDILGEIAVSIVRALEHLHSKLSVIHRDVKPSNVLINKEGHVKMCDFGISGYLVDSVAKTMDAGCKPYMAPERINPELNQKGYNVKSDVWSLGITMIEMAILRFPYESWGTPFQQLKQVVEEPSPQLPADRFSPEFVDFTAQCLRKNPAERMSYLELMEHPFFTLHKTKKTDIAAFVKEILGEDS
# Target: GST-p38α (UniProt Q16539)
# Assay: pull-down; GST-p38α (10 μg) on glutathione beads, rotated 1 h at +4 °C with cleared 293T lysate holding the luciferase fusion (7,000 units), low-salt buffer with 0.5% Igepal, washed three times; luciferase on beads as per cent of input; only the target purified
binder,measurement,value
B1,binding,binds
